In all, about 1,600 compounds went through this assay and about 20 (1%) were called active.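 Rule for the calls: active = ratio of uncleaved NAD to its breakdown product ADP-ribose above 4, meaning the enzyme was inhibited; inactive = the rest.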 This is one part of the list.

Chains of the proteins cited; added tags and fusions are not shown. Lines headed by an entry give the natural chain unless they say otherwise; changes in a name come on top.
UniProt Q6SZW1: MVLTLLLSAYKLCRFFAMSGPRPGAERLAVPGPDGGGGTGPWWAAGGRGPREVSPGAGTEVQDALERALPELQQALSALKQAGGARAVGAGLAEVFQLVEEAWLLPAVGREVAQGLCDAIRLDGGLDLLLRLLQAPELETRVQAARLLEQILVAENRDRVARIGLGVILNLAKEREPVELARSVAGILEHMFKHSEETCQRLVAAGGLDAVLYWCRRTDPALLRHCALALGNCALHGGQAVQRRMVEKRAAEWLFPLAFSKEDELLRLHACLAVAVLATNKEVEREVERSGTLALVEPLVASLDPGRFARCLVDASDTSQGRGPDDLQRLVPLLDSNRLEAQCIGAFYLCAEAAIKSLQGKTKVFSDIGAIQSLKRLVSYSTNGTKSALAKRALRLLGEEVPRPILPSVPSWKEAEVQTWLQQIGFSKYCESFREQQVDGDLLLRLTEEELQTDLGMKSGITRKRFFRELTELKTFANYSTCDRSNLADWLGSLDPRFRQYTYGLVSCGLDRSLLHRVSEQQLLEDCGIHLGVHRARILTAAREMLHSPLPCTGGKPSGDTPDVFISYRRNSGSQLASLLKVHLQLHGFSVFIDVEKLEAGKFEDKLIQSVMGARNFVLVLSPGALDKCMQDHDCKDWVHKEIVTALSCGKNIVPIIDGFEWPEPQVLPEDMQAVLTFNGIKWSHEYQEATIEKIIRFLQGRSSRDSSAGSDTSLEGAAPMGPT

The assay deals with NAD(+) hydrolase SARM1 (Homo sapiens) (UniProt Q6SZW1). In words: SARM1 TIR NADase inhibitors by HPLC, primary screen, cell lysate, HPLC readout (AID 1508615).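 Note: substrate NAD at 5 µM with 60 min at 37 °C.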 The settings on record: HEK293T SAM-TIR lysate, at 5 µM, stronger effect = higher value.
Regarding `N=Cc1c(O)n(-c2ccccc2)c(=O)n(-c2ccccc2)c1=O`, the NAD/ADPR ratio is inactive: 3. With `O=C1N(c2nncs2)CCN1[N+](=O)[O-]` the figure was inactive: 3; with `CN1CCCC1c1ccc(=O)[nH]c1` (stereo not given), inactive: 3.

Turning to `CCCC(=O)N(C)C1=Nc2ccc(Cl)cc2C(c2ccccc2)=[N+]([O-])C1`, the NAD/ADPR ratio was inactive: 3. With `CN(C)P(=O)(N(C)C)N1CC1` the figure was inactive: 3; with `COc1ccc2c(c1)NP(=S)(Oc1ccccc1)N2` (stereo not given), inactive: 3. With `Cn1cc(C=O)c2nccnc21` the figure was inactive: 3. As for `C1CC2NCCC3NCCC(N1)N32` (stereo not given), the NAD/ADPR ratio is inactive: 3. The value for `CC(=O)Nc1ccc([As](=O)(O)c2ccc([N+](=O)[O-])cc2)cc1` was inactive: 3. With `O=C(O)c1[nH]c(=O)[nH]c(=O)c1F` the figure was inactive: 3.

As for `Cc1c(C(=O)c2ccccc2)c2ccccc2n1C`, the NAD/ADPR ratio was inactive: 3. The value for `CN1C(=O)CC[C@@]2(C)C1=CC[C@@H]1[C@@H]2CC[C@@]2(C)[C@H]1CC[C@]2(C)O` was inactive: 3.

Regarding `COc1cc(C=C2C(=O)NC(=O)NC2=O)ccc1O`, the NAD/ADPR ratio is inactive: 3. For the molecule `O=C(O)CN1C(=O)CN=C(c2ccccn2)c2cc(Cl)ccc21`, the NAD/ADPR ratio was inactive: 3. For the molecule `COc1cc2c(cc1O)CC1c3c(cc(O)c(OC)c3-2)CCN1C` (stereo not given), the NAD/ADPR ratio is inactive: 3. With `NC(=S)c1cn(C2OC(CO)C(O)C2O)c2ncnc(N)c12` (stereo not given) the figure was inactive: 3; with `CN1CCC2(O)OCCCC2C1` (stereo not given), inactive: 3; with `C/C=C/CC1(CC)C(=O)NC(=S)NC1=O`, inactive: 3. With `CCC1CN1P(=O)(Oc1ccc(Cl)cc1)N1CC1CC` (stereo not given) the figure was inactive: 3; with `CN(C)C1CCc2[nH]c3c(F)cc(F)cc3c2C1` (stereo not given), inactive: 3.

For `C[C@H](N)C(=O)N[C@@H]1[C@H]2C(=C(O)C[C@@H](O)[C@@H]2O)C(=O)O[C@]1(C)C(Cl)Cl`, the NAD/ADPR ratio was inactive: 3.

For the molecule `CC1(C)CC(=O)CC(C)(C)N1O`, the NAD/ADPR ratio was inactive: 3. The value for `CC(=O)Nc1cc([As](=O)(O)O)ccc1O` was inactive: 3. The value for `COc1cccc2c1cc([N+](=O)[O-])c1c(C(=O)O)cc3c(c12)OCO3` was inactive: 3. `CN1C2c3ccccc3C3C4c5ccccc5C(C31)C(C2[N+](=O)[O-])N4C` (stereo not given): the NAD/ADPR ratio was inactive: 3. The value for `CC12CCC3C(CCC4Cc5[nH]c6ccccc6c5CC43C)C1CCC2O` (stereo not given) was inactive: 3; that for `O=C(/C=C/c1ccc(O)c(O)c1)OC1C(O)CC(OC(=O)/C=C/c2ccc(O)c(O)c2)(C(=O)O)CC1O` (stereo not given) was inactive: 3. The value for `CCN1CCc2ccccc2C1` was inactive: 3; that for `CCC(C)c1cnc(CC(C)C)c(=O)n1O` (stereo not given) was inactive: 3. The value for `COC1C(OC(=O)c2ccc(C)[nH]2)C(O)C(Oc2ccc3c(O)c(NC(=O)c4ccc(O)c(CC=C(C)C)c4)c(=O)oc3c2Cl)OC1(C)C` (stereo not given) was inactive: 3; that for `CCC(CO)NC(=O)C1C=C2c3cccc4[nH]cc(c34)CC2N(C)C1` (stereo not given) was inactive: 3. `COc1ccc(CCNC2(C#N)CCCCC2)cc1OC`: the NAD/ADPR ratio is inactive: 3. With `Cc1c(CCN)ccc2c1[nH]c1ccccc12` the figure was inactive: 3; with `Cc1cc(OCCN2CC2)c2ccccc2n1`, inactive: 3; with `O=C(CF)N(O)c1ccc(/C=C/c2ccccc2)cc1`, inactive: 3. With `CC(C)(O)C1C2OC(=O)C1C1(O)CC3OC34C(=O)OC2C14C` (stereo not given), the NAD/ADPR ratio is inactive: 3. With `S=C1NC2(CCCCC2)NC12CCCCC2` the figure was inactive: 3. With `CC1CC(C)OP(=O)(OCCC#N)O1` (stereo not given) the figure was inactive: 3. For `COC12C(COC(N)=O)C3=C(C(=O)C(C)=C(N)C3=O)N1CC1C2N1C` (stereo not given), the NAD/ADPR ratio is inactive: 3. The value for `O=C(NC(=O)c1c(F)cccc1F)Nc1cc(Cl)c(F)c(Cl)c1F` was inactive: 3. The value for `CC(C)NC1C2CCC(CC2)C1(O)c1ccc(Cl)c(Cl)c1` (stereo not given) was inactive: 3; that for `COC1CC2\C=C(C)/C=C/C=C\C(=O)NC(c3ccccc3)C/C=C/CCC(O)CC(=O)C2=C1O` (stereo not given) was inactive: 3; that for `CN1C(=O)NC(=O)C(N=Nc2ccc(Cl)cc2)C1=O` (stereo not given) was inactive: 3.

In the case of `COc1ccc2c(c1)C13CCN(C)C(C2)C1CCC1(C3)OCCO1` (stereo not given), the NAD/ADPR ratio was inactive: 3.

For the molecule `C=CCN1CC[C@]23c4c5ccc(O)c4OC2C(=O)CC[C@@]3(O)C1C5` (stereo not given in full), the NAD/ADPR ratio is inactive: 3. In the case of `O=C(NCCCN1CC1)Nc1cccc2ccccc12`, the NAD/ADPR ratio is inactive: 3. With `N#CC(C#N)=Cc1ccc(C=C(C#N)C#N)cc1` the figure was inactive: 3; with `COc1ccc2c(c1O)[C@]13CCN(C)[C@H](C2)[C@@H]1CCC(=O)C3`, inactive: 3; with `C=CCNC(=S)Nc1ccc(OC(=O)Nc2ccc(Cl)c(Cl)c2)cc1`, inactive: 3.

For the molecule `c1cc(C2N3CCCN2CC3)ccn1` (stereo not given), the NAD/ADPR ratio is inactive: 3.

Take `Cc1c2ccncc2c(C)c2c1[nH]c1ccccc12`: the NAD/ADPR ratio is inactive: 3. Consider `CC[C@@]1(O)C(=O)OCc2c1cc1n(c2=O)Cc2cc3c(NC(=O)CN)cccc3nc2-1`, for which the NAD/ADPR ratio is inactive: 3.

Turning to `Oc1cccc2nc3ccccc3nc12`, the NAD/ADPR ratio is inactive: 3. As to `CN1CCC(c2c[nH]c3ccccc23)C1` (stereo not given), the NAD/ADPR ratio is inactive: 3. With `CCC(N)Cc1c[nH]c2ccccc12` (stereo not given) the figure was inactive: 3; with `C=C1C(=O)OC2CC3(C)OC3CC/C(C)=C\C(OC(C)=O)C12` (stereo not given), inactive: 3; with `O=C1CCC2(O)[C@@H]3Cc4ccc(O)c5c4[C@]2(CCN3Cc2ccoc2)C1O5` (stereo not given in full), inactive: 3. With `COc1ccccc1[As](=O)(O)CC(O)COc1ccc(Cl)cc1Cl` (stereo not given) the figure was inactive: 3; with `CC1=CC(O)C(O)C2(C)C1CC1OC(=O)C(O)C3C(C)C(O)C4(O)OCC13C42` (stereo not given), inactive: 3. With `O=C(OC1CCCCC1)c1ccccc1C(=O)OC1CCCCC1` the figure was inactive: 3. For `Cc1ccccc1NC(=O)NCCN1CC1`, the NAD/ADPR ratio is inactive: 3. As to `Cc1ccccc1-n1c(/C=C/c2ccccn2)nc2ccccc2c1=O`, the NAD/ADPR ratio was inactive: 3.

In the case of `COc1cc(OC)cc(C2(C#N)CCN(C)CC2)c1`, the NAD/ADPR ratio was inactive: 3. `CC1(C)NC(=S)C(C)(C)N1N=O`: the NAD/ADPR ratio is inactive: 3. The value for `CCc1cc2c(cc1-c1csc(C/C(N)=N/O)n1)C(C)(C)CCC2(C)C` was inactive: 3; that for `O=C1NC(=O)C(=Cc2ccc3ccccc3c2)C(=O)N1` was inactive: 3; that for `O=C1CCCN1CC#CCN1CCCC1` was inactive: 3. Take `Cc1ccc2c(c1)Oc1ccccc1N=C2`: the NAD/ADPR ratio was inactive: 3.

On to `CC(C)(C)n1cc(C(=O)c2ccccc2)cc1-c1ccccc1`, for which the NAD/ADPR ratio was inactive: 3. The value for `O=[As](O)(O)c1ccc(N=Nc2ccc(O)cc2)cc1` was inactive: 3.

Turning to `CN1C2CCC1C(COC(=O)c1ccccc1)C(O)C2` (stereo not given), the NAD/ADPR ratio was inactive: 3.

With `CN1CCN(c2nc(N)c(Br)c(Cl)n2)CC1`, the NAD/ADPR ratio was inactive: 3.

In the case of `CN1CCc2cc3c(cc2C1)OCO3`, the NAD/ADPR ratio is inactive: 3. With `CN1CCN(c2ccc([N+](=O)[O-])c3no[n+]([O-])c23)CC1` the figure was inactive: 3; with `CC[C@@]1(O)C(=O)OCc2c1cc1n(c2=O)Cc2cc3ccccc3nc2-1`, inactive: 3; with `CC1C(C)N1CC(O)Cn1ccnc1[N+](=O)[O-]` (stereo not given), inactive: 3. With `COc1c(OP2(=S)OCC(C)(C)CO2)cnn(C2CCCCC2)c1=O` the figure was inactive: 3; with `CC1=C(O)C(=O)C=C2C1=CC=C1[C@@]2(C)CC[C@@]2(C)[C@@H]3C[C@](C)(C(=O)O)CC[C@]3(C)CC[C@]12C`, active: 12.8; with `O=P(Oc1ccccc1)(Oc1ccccc1)c1ccccc1`, inactive: 3. With `CC(=O)OC1CCC2(C)C(CCC3C2CC(=O)C2(C)C3CC(N3CC3)C2C(C)=O)C1` (stereo not given) the figure was inactive: 3; with `c1ccc2nc(OCCN3CC3)ccc2c1`, inactive: 3; with `C=CCCC1(C2=CCCCC2)C(=O)NC(=O)NC1=O`, inactive: 3.

For the molecule `CNC(=O)Oc1c(C)[nH]ccc1=O`, the NAD/ADPR ratio is inactive: 3. The value for `O=S(=O)(F)c1ccc2nc(-c3cccc(Sc4ccccc4)c3)cc(Cl)c2c1` was inactive: 3. With `COc1ccc(C2=CC(c3ccc(OC)c(OC)c3)c3c(c4ccccc4oc3=O)O2)cc1OC` (stereo not given) the figure was inactive: 3; with `CC(C)OC1CCCC(O)C1CC(=O)O` (stereo not given), inactive: 3. With `COC(=O)c1nc(-c2ccc3c(n2)C(=O)C(N)=C(OC)C3=O)c(N)c(-c2ccc(OC)c(OC)c2O)c1C`, the NAD/ADPR ratio was inactive: 3. As for `OCC1CN1C1CCCCC1` (stereo not given), the NAD/ADPR ratio was inactive: 3. The value for `Cc1ccc(-n2c(O)c(C=N)c(=O)n(-c3ccc(C)cc3)c2=O)cc1` was inactive: 3; that for `CC(Cc1ccccc1)NC(N)=O` (stereo not given) was inactive: 3. With `COc1cccc2c1C(=O)c1c(O)c3c(c(O)c1C2=O)CC(O)(C(C)=NO)CC3OC1CC(N)C(O)C(C)O1` (stereo not given) the figure was inactive: 3. With `O=[N+]([O-])c1cc(-c2ccc([As](=O)(O)O)cc2)ccc1[As](=O)(O)O` the figure was inactive: 3; with `CC12CCC3C(CC=C4CC(O)CCC43C)C1C/C(=C\N1CCCC1)C2=O` (stereo not given), inactive: 3. On to `C/C=C(/C)C(=O)O[C@H]1CCN2CC=C(COC(=O)[C@@](O)([C@H](C)OC)C(C)(C)O)[C@H]12`, for which the NAD/ADPR ratio was inactive: 3. For the molecule `Cc1ncc([N+](=O)[O-])n1CCOC(N)=O`, the NAD/ADPR ratio was inactive: 3. With `CCC1CN1P1(=O)OCC(C)([N+](=O)[O-])CO1` (stereo not given) the figure was inactive: 3; with `O=[N+]([O-])c1oc2ccc3ccccc3c2c1CCO`, inactive: 3.

As for `c1ccc2c(c1)Sc1ccccc1N2CC1CN2CCC1CC2` (stereo not given), the NAD/ADPR ratio was inactive: 3. With `CNC(=O)Oc1ccc(N(C)C)cc1C(C)C` the figure was inactive: 3; with `CC12CCC3c4ccc(OC(=O)N(CCCl)CCCl)cc4CCC3C1CCC2O` (stereo not given), inactive: 3. With `NC(=O)c1ccc(C(=O)Nc2ccc([As](=O)(O)O)cc2)cc1` the figure was inactive: 3; with `CSc1nc(C)c(Br)c(N2CC2)n1`, inactive: 3; with `COC(=O)C1C(O)C(C)C(O)C(C)/C=C\C=C(/C)C(=O)Nc2c(C)c(OC(C)=O)c3c(c2O)C(=O)C(C)=C2OCOC(=C23)/C(C)=C/C(C)(O)C(O)C(C)C1O` (stereo not given), inactive: 3. Take `CCN1CC2C3CCC(C)(O3)C2C1` (stereo not given): the NAD/ADPR ratio was inactive: 3.

On to `C[C@H]1CC[C@H]2NCCN[C@H]2C1`, for which the NAD/ADPR ratio is inactive: 3. Regarding `C=Cc1cc(OC)c2c(c1)c(=O)oc1c2cc(OC)c2c(O)ccc(C3OC(C)C(O)C(C)(O)C3O)c21` (stereo not given), the NAD/ADPR ratio is inactive: 3. With `CC(=O)Nc1cccc([As](=O)(c2cccc(NC(C)=O)c2)c2cccc(NC(C)=O)c2)c1` the figure was inactive: 3. The value for `CC1Oc2cc3c(-c4c(O)cc(O)c5c(O)c6c(cc45)OC(C)C(C)C6=O)c(O)cc(O)c3c(O)c2C(=O)C1C` (stereo not given) was inactive: 3; that for `O=C1NC(=O)C(=Cc2csc3ccccc23)C(=O)N1` was inactive: 3. With `CCC1CCC(C)N(N=O)C1` (stereo not given) the figure was inactive: 3.

Source of the values: PubChem BioAssay AID1508615 (Milbrandt Lab, Department of Genetics, Washington …, 2020).
